Laboratory results published in patent US12285392B2, “Method for modulating metabolism” (Brightseed, Inc., priority 2018, dated 2025).
At least one structure is not confirmed: it was looked up by name or label, or the drawing left a doubt.

Experiments:
Format in all cases: cell-based
HNF4α = target: T1, HNF4α (Homo sapiens, UniProt P41235); experiment: Insulin promoter activity assay in T6PNE cells (HNF4α activity)
T1 construct: endogenous in cells; host or cells: T6PNE cells
T1 sequence (P41235 1-474): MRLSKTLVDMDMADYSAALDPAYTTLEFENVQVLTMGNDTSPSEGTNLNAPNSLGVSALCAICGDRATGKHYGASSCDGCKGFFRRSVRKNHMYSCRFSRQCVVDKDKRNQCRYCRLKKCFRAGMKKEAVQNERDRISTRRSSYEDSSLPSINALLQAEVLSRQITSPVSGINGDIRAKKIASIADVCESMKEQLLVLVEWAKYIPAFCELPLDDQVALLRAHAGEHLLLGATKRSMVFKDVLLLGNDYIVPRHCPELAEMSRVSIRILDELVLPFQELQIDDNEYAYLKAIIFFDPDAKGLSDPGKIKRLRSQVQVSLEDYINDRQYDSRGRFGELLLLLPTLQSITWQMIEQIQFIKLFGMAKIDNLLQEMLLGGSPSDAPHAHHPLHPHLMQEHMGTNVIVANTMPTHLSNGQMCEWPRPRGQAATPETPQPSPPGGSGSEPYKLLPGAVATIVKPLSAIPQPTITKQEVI
Description: Insulin Promoter Activity. T6PNE cells (Kiselyuk, et al. (2012) Chem Biol. 19(7):806-818; Kiselyuk, et al. (2010) J. Biomol. Screen 15(6):663-70) are seeded at 2000 cells per well in 384-well tissue culture plates in the presence of 1 μM tamoxifen and 0.03 mM palmitate. After a 24-hour incubation, a compound or extract of the invention is added to the cells. Forty-eight hours after compound or extract addition, cells are fixed in 4% paraformaldehyde and stained with DAPI. Blue (DAPI) and green (human insulin promoter driving GFP) channels are imaged.
Inhibition of HNF4α GFP Expression. Using the insulin promoter assay described herein, activity of HNF4α was assessed in the presence of BI-6015 (0, 2.5, 5 μM), a known antagonist of HNF4α (Kiselyuk, et al. (2012) Chem. Biol. 19(7):806-818), in combination with N-trans-caffeoyltyramine (0, 5, 10, 20 μM).
Given the role of HNF4α in maintaining a heal thy metabolism in humans, test compounds were screened for activity as HNF4α agonists (either direct or indirect effects). Using a known insulin promoter-reporter assay, Kiselyuk and colleagues (2010. J. Biomol. Screen 15(6):663-70), screened a library of compounds for activity to promote insulin activation. […] The OTC promoter is known to be responsive to HNF4α in transient transfection assays (Inoue, et al. (2002) J. Biol. Chem. 277:25257-65).

insulin mRNA = experiment: Insulin mRNA levels by quantitative PCR; conditions: FIG. 2
Description: (§1) Expression of Insulin and HNF4α. RNA was purified using a RNEASY® chromatographic separation and isolation kits (Qiagen), and converted to cDNA using the gScript™ cDNA SuperMix (Quanta Biosciences). Q-PCR was conducted with cDNA corresponding to 2 μg of RNA using an Opticon Real-Time System (MJ Research) and QPCR SuperMix (BioPioneer). See All mRNA values were normalized to 18S rRNA values and are expressed as fold changes over vehicle-treated control.

HNF4α mRNA = HNF4α mRNA levels by quantitative PCR; conditions: FIG. 3
Description: as §1

T6PNE cells = experiment: Lipid clearance in T6PNE cells (steatosis assay); conditions: 10 μM, 0.25 mM palmitate
Description: T6PNE cells were pretreated for 1 day with 0.06 mM, 0.12 mM or 0.25 mM palmitate at which time 15 μM N-trans-caffeoyltyramine or control (DMSO) was added. Cells were harvested on day 3, 6 and 8 and subjected to staining with Nile Red and Oil Red O. Results are expressed as fold change in Nile Red staining: +palmitate/10% FBS medium (no palmitate)
Lipid Clearance in HepG2 and T6PNE Cells (Steatosis Assay). The steatosis assay was carried out as described (Kiselyuk, et al. (2012) Chem. Biol. 19(7):806-818) with the exception of the drug concentration, which was 20 μM for N-trans-caffeoyltyramine with 0.25 mM palmitate in HepG2 cell lines, and 10 μM of either N-trans-caffeoyltyramine, N-trans-caffeoyltyramine, or pcoumaroyltyramine, with 0.25 mM palmitate in T6PNE cell lines. Steatosis was assessed using the Oil Red 0 Method for Fats kits (Poly Scientific; Warrington, PA), per manufacturer's guidelines. Briefly, frozen tissue slides or fixed cells were incubated in neat propylene glycol for 2 minutes and Oil Red 0 solution for 15 hours for slides or 1 hour for fixed cells, differentiated in 85% propylene glycol solution for 1 minute, washed twice with distilled water and stained in Hematoxylin of 10 seconds. Slides were mounted with glycerin jelly mounting medium.

How did the “HNF4α Activity” value (HNF4α; Table 4 summary) turn out when `O=C(/C=C/c1ccc(O)cc1)NCCc1ccc(O)cc1` [p-coumaroyltyramine] was run?
The value was “+”.

And the “HNF4α modulation in screening” value (HNF4α; screening in the HNF4α assay)?
The value was “able to act as HNF4α modulators”.

What about the Insulin gene expression (insulin mRNA) of the same compound?
Its Insulin gene expression is “upregulated”.

What about the HNF4α gene expression (HNF4α mRNA) of the same compound?
Its HNF4α gene expression is “upregulated”.

And the Fat accumulation (T6PNE cells)?
The Fat accumulation was “inhibition of fat accumulation”.
